# PubChem BioAssay AID1458 (National Center for Advancing Translational Sciences (NCATS), 2008)
# About 5,900 (2.8%) of roughly 210,000 compounds were called active. About 5% were inconclusive and are not listed. The call rests on the fitted dose curve; in most records, active means well fitted activation curve with a large enough effect; inconclusive means small, poorly fitted or top-dose-only effect; inactive means no such curve, though single readings can be large or run the other way. The entries are a selection whose mix differs from that of the whole data set. Where no call is shown, the source filed none.
# Assay: qHTS Assay for Enhancers of SMN2 Splice Variant Expression; further: nearly all actives have a fitted effect of over 55% in size; on activity change, positive = activation: % of control where 0% means no effect
# Settings: HEK293 SMN2-luciferase splicing reporter, luminescence, 30-36 h; activity change, positive = activation: at 46.1 µM (top of the series) unless noted
# In short: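 qHTS luciferase splicing reporter: luminescence rises when SMN2 exon 7 is included in transfected HEK293 cells. Compound exposure lasted 30-36 h at 37C, with 4.5 mM final sodium butyrate as control, followed by a ONE-Glo read.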
# Potency means the concentration at half of the fitted maximal effect.
SMILES,"activity change, positive = activation",Potency
Nn1c(Nc2ccccc2)nc2sc3c(c2c1=O)CCC3,inactive: -51.2%,
COc1ccc(/C=N\n2nnc3ccccc32)cc1,,active: 0.794 µM
CCCN(CCC)CCNC(=O)C1c2ccccc2C(=O)N(CCOC)C1c1ccc(F)cc1 (stereo not given),26.6%,
COc1ccc(-c2ccc(SCC(=O)NCC3CCCO3)nn2)cc1OC (stereo not given),50.9%,
O=C(CSc1ccc(Cl)cc1)N1CCN(c2ccc(Cl)cc2[N+](=O)[O-])CC1,inactive: -37.5%,
COc1cc(Br)cc(CN2CCN(C=O)CC2)c1O,60.6%,
COCCn1nnnc1C(c1ccc(O)c(OC)c1)N1CCc2ccccc2C1 (stereo not given),41.5%,
O=C(/C=C/c1ccc2c(c1)OCCCO2)c1ccc2ccccc2c1O,inactive: -34.3%,
CC(C)Cn1c(CN2CCN(c3cccc(Cl)c3)CC2)nc2c1c(=O)[nH]c(=O)n2C,22.8%,
Cc1ccc(N2CC(C(=O)NCc3ccccn3)CC2=O)cc1 (stereo not given),32.4%,
CC(C)c1ccc(Nc2nc(CC(=O)O)cs2)cc1,85.3%,
CCOc1cc(S(=O)(=O)NC2CCCC2)ccc1Cl,30.8%,
Cc1c(Cl)cccc1NC(=S)NCc1ccccc1Cl,-20.5%,
Cc1cc(/C=N/n2cnnc2)c(C)n1-c1ccc(OCc2ccc(F)cc2)cc1,-60.5%,
O=C(O)CCC(=O)Nc1ccc(C(=O)OC2CCCCC2)cc1,inactive: -15.4%,
Cc1nc2ccccc2n1CC(O)COCC1CC=CCC1 (stereo not given),-81.8%,
CC(C)Cc1nnc(NC(=O)CSc2nc(=O)cc(N)n2-c2ccccc2)s1,32%,
c1ccc(-n2nnnc2NC2CCCCCC2)cc1,-55.2%,
Cc1nn(-c2ccccc2)c(Cl)c1/C=N/Nc1nc2ccccc2n1C,,active: 11.2 µM
CCCCOC(=O)c1cccc(NC(=O)/C=C/c2ccccc2Cl)c1,,active: 1.41 µM
CCc1ccc(N2CSC3=C(C#N)C(c4cccs4)CC(=O)N3C2)cc1 (stereo not given),15.8%,
COc1ccc2c(c1)O[C@H](c1ccc3c(c1)OCO3)[C@@H](O)C2=O,,active: 12.6 µM
Cc1ccc2c(c1)-c1nc3ccccc3cc1C2=NC1CCCCC1,,active: 6.31 µM
CCOC(=O)c1ccc(NC(=O)C(=O)NCc2ccncc2)cc1,-51%,
COc1cc(NC(=O)CS(=O)(=O)c2ccccc2)cc(OC)c1OC,33.9%,

# Reformatted with bars between the fields: 14 of the compounds above
SMILES | activity change, positive = activation | Potency
CC(C)c1ccc(Nc2nc(CC(=O)O)cs2)cc1 | 85.3% | 
CCOc1cc(S(=O)(=O)NC2CCCC2)ccc1Cl | 30.8% | 
Cc1c(Cl)cccc1NC(=S)NCc1ccccc1Cl | -20.5% | 
Cc1cc(/C=N/n2cnnc2)c(C)n1-c1ccc(OCc2ccc(F)cc2)cc1 | -60.5% | 
O=C(O)CCC(=O)Nc1ccc(C(=O)OC2CCCCC2)cc1 | inactive: -15.4% | 
Cc1nc2ccccc2n1CC(O)COCC1CC=CCC1 (stereo not given) | -81.8% | 
CC(C)Cc1nnc(NC(=O)CSc2nc(=O)cc(N)n2-c2ccccc2)s1 | 32% | 
c1ccc(-n2nnnc2NC2CCCCCC2)cc1 | -55.2% | 
Cc1nn(-c2ccccc2)c(Cl)c1/C=N/Nc1nc2ccccc2n1C |  | active: 11.2 µM
CCCCOC(=O)c1cccc(NC(=O)/C=C/c2ccccc2Cl)c1 |  | active: 1.41 µM
CCc1ccc(N2CSC3=C(C#N)C(c4cccs4)CC(=O)N3C2)cc1 (stereo not given) | 15.8% | 
COc1ccc2c(c1)O[C@H](c1ccc3c(c1)OCO3)[C@@H](O)C2=O |  | active: 12.6 µM
Cc1ccc2c(c1)-c1nc3ccccc3cc1C2=NC1CCCCC1 |  | active: 6.31 µM
CCOC(=O)c1ccc(NC(=O)C(=O)NCc2ccncc2)cc1 | -51% | 

# More entries:

SMILES,"activity change, positive = activation",Potency
CCCNC1=C(N(C(C)=O)c2cccc(F)c2)C(=O)c2ccccc2C1=O,inactive: -110%,
Cn1cnnc1Sc1cc(N2CCN(S(=O)(=O)c3ccc(Cl)c(Cl)c3)CC2)ccc1[N+](=O)[O-],inactive: -35.8%,
CCOc1ccc(C(=O)Nc2cc(C)on2)cc1,,active: 8.91 µM
CC(C)Sc1nnc([C@H](Cc2c[nH]c3ccccc23)NC(=O)OC(C)(C)C)o1,46.2%,
Cc1cccc(/C=N/NC(=O)NC2CCCCC2)c1,30.8%,
O=C(NNC(=S)Nc1ccc(F)cc1)C1CC1c1ccc(Cl)cc1 (stereo not given),-8.68%,
Fc1ccc(C(CCCn2nnc(-c3cccnc3)n2)c2ccc(F)cc2)cc1,-41.9%,
Clc1ccc2scc(CN3CCCCC3)c2c1,inactive: -3.33%,
COc1ccc(C(=O)Nc2ccc(OC)c(OC)c2)cc1,,active: 11.2 µM
Cc1ccc(S(=O)(=O)c2c(N)n(CC3CCOC3)c3nc4ccccc4nc23)cc1 (stereo not given),22.3%,
Cc1ncsc1CCOC(=O)C1C2CC3CC(C2)CC1C3 (stereo not given),inactive: -31.4%,
CCCc1nn2cc(-c3ccc(C)c(C)c3)nc2s1,,active: 1.26 µM
CCOC(=O)Cc1c(C)nc2c(-c3ccc(Cl)cc3)c(C(F)(F)F)nn2c1C,inactive: -40%,
On1onc2c3cc(-c4ccccc4)nc3ccc21,-93.1%,
CCOc1cc(/C=N/Nc2cccc(C(=O)O)c2)ccc1OCC(=O)N1CCCCC1,,active: 11.2 µM
N#Cc1ccc(N2Cc3ccccc3/C2=N/C(=O)Nc2ccc(Cl)cc2)cc1,37.3%,
CCOC(=O)c1oc2ccccc2c1NC(=O)c1cccs1,-31.2%,
C=CC(C)N1C(=O)S/C(=C\c2ccc(N3CCOCC3)cc2C)C1=O (stereo not given),inactive: -37.6%,
COc1ccc(-c2cc(=O)c3ccccc3[nH]2)cc1,inactive: -6.66%,
Cc1cccc(-c2nc(CN3CCCC(C(=O)NCCc4ccc(Cl)cc4)C3)c(C)o2)c1 (stereo not given),inactive: -64.6%,
Clc1cccc(-c2cc3nc4c(c(N5CCNCC5)n3n2)CCCC4)c1,inactive: -125%,
CCN(CC)C(=O)CSc1nc2ccccc2c(=O)[nH]1,31.6%,
O=C(c1ccc(Cl)c(S(=O)(=O)N2CCCCCC2)c1)N1CCN(c2ccccn2)CC1,inactive: -46.5%,
O=C(NCc1ccco1)c1sc2cccc(F)c2c1Cl,41.5%,
CCOC(=O)COn1c(=O)c(-c2cc3ccccc3o2)[n+]([O-])c2ccccc21,,active: 14.1 µM
